Each structure is given as a SMILES string. Values joined by “and” are separate entries in the source; they are usually repeats but may differ in a detail not shown here. Identical values can stand only once. Some of the results follow. This data set is noisy: repeats of one test often differ as much as different tests do.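 HEK293T cells were given each compound shortly before transfection with a reporter in which red mCherry is followed by the SARS-CoV-2 frameshift element and then GFP in the −1 frame, so GFP appears only after frameshifting.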

In this assay the test system is SARS-CoV-2 -1 PRF reporter mCherry-FSE-GFP(-1). The assay is described as follows: percent effect, decrease of GFP/mCherry ratio (-1 PRF reporter) relative to controls; higher = stronger frameshift inhibition. Conditions: 10 µM; 24 h; HEK293T.
`O=C1NC(c2ccccc2)(c2ccccc2)C(=O)N1COP(=O)(O)O` [fosphenytoin]: the percent effect is -4.08%.
Under `CO[C@@H]1[C@@H](OC)[C@H](C)[C@@](O)(CC(=O)O)O[C@H]1[C@H](C)[C@H]1O[C@@]2(CC[C@@](C)([C@H]3CC[C@@](C)([C@@H]4O[C@@H]([C@H]5O[C@](C)(O)[C@H](C)C[C@@H]5C)C[C@@H]4O[C@@H]4C[C@H](OC)[C@@H](OC)[C@H](C)O4)O3)O2)C[C@H](O)[C@H]1C` [maduramicin] stands -27.5%; under `CCCCC[C@](C)(O)/C=C/[C@@H]1[C@@H](C/C=C\CCCC(=O)O)[C@@H](O)C[C@H]1O` [carboprost], -2.74%; under `Cc1cc(CC(=O)O)c(C)n1-c1ccc(Cl)cc1` [clopirac], -0.457%.
Under `CC[C@]1(O)C[C@@H]2CN(CCc3c([nH]c4ccccc34)[C@@](C(=O)OC)(c3cc4c(cc3OC)N(C)[C@H]3[C@@](O)(C(=O)OC)[C@H](OC(C)=O)[C@]5(CC)C=CCN6CC[C@]43[C@@H]65)C2)C1` [vinblastine] stands -0.434%; under `Cc1cccc(C)c1NC(=O)CC12CCCN1CCC2` [pilsicainide], -2.23%; under `O=C(OCc1ccccc1)c1ccccc1`, -2.77%.
In the case of `CC(O)CN(CCN(CC(C)O)CC(C)O)CC(C)O` (stereo not given) [edetol], the percent effect came to 1.86%.
Under `C[C@]12CCC(=O)C=C1CC[C@@H]1[C@@H]2[C@@H](O)C[C@@]2(C)[C@H]1CC[C@]2(O)C(=O)CS` [tixocortol] stands -4.56%; under `Cc1cc(/C=C/C#N)cc(C)c1Nc1ccnc(Nc2ccc(C#N)cc2)n1` [rilpivirine], -9.83%; under `NS(=O)(=O)c1cc2c(cc1C(F)(F)F)NCNS2(=O)=O` [hydroflumethiazide], -0.0678%.
As to `CNC(=O)COc1cc2cc(Nc3nc(N4C[C@H](C)C[C@H](C)C4)ncc3Cl)ccc2n(C)c1=O`, the percent effect stood at 0.272%.
For `O=C(O)P(=O)(O)O` [foscarnet sodium], the percent effect is 0.302%.
Consider `Nc1ccc(S(=O)(=O)Nc2ccccn2)cc1` [sulfapyridine], for which the percent effect is -6.46%.
Under `CC1(CN2CCC(n3c(=O)[nH]c4ccccc43)CC2)OCc2ccccc2-n2cccc21` (stereo not given) [zaldaride] stands -4.05%; under `CNC(=N)NC(=O)Nc1c(C)cccc1C` [lidamidine], -4.68%.
Then `CCC(=O)NC[C@@H]1C[C@H]1c1cccc2c1CCO2` [Tasimelteon], with -0.788%; and `CSCC[C@H](NC(=O)[C@H](Cc1c[nH]c2ccccc12)NC(=O)CNC(=O)[C@@H](NC(=O)[C@H](Cc1ccc(OS(=O)(=O)O)cc1)NC(=O)[C@H](CC(=O)O)NC(=O)[C@H](CCC(N)=O)NC(=O)[C@@H]1CCC(=O)N1)[C@@H](C)O)C(=O)N[C@@H](CC(=O)O)C(=O)N[C@@H](Cc1ccccc1)C(N)=O` [ceruletide], with -2.34%; and `C[C@@H]1O[C@@H](OC[C@H]2O[C@@H](Oc3c(-c4ccc(OCCO)c(OCCO)c4)oc4cc(OCCO)cc(O)c4c3=O)[C@H](O)[C@@H](O)[C@@H]2O)[C@H](O)[C@H](O)[C@H]1O` [troxerutin], with -1.45%.
For `C[C@]12CC[C@H]3C(=CCc4cc(O)ccc43)[C@@H]1CCC2=O` [Equilin], the percent effect was -3.62%.
Under `CCOC(=O)c1ccc(N)cc1` [benzocaine] stands 2.26%; under `CC1=C(C/C=C(\C)CCC[C@H](C)CCC[C@H](C)CCCC(C)C)C(=O)c2ccccc2C1=O` [phytomenadione], -12.1%; under `O=C(c1ccccc1)c1ccc2n1CCC2C(=O)O` (stereo not given) [ketorolac], -1.66%.
For `CC(=O)Nc1nnc(S(N)(=O)=O)s1` [acetazolamide], the percent effect was -0.64%.
Then `CCN(CC)CCOc1ccc2c(c1)C(=O)c1cc(OCCN(CC)CC)ccc1-2` [tilorone], with 14.3%; and `O=C([O-])[C@H](O)[C@@H](O)[C@H](O)[C@H](O)CO.O=C([O-])[C@H](O)[C@@H](O)[C@H](O)[C@H](O)CO.[Ca+2]`, with -3.83%; and `CCOc1nc2cccc(C(=O)O)c2n1Cc1ccc(-c2ccccc2-c2nnn[nH]2)cc1` [Candesartan], with -6.82% and -1.47%.
In the case of `O=C(CCCN1CCC(n2c(=S)[nH]c3ccccc32)CC1)c1ccc(F)cc1` [timiperone], the percent effect worked out at 3.96%.
Then `Fc1ccc(Cn2c(NC3CCNCC3)nc3ccccc32)cc1` [tecastemizole], with -1.75%.
Then `COc1ccc(NS(=O)(=O)c2ccc(N)cc2)nn1` [sulfamethoxypyridazine], with -2.79%; and `Cc1nc(NS(=O)(=O)c2ccc(N)cc2)oc1C` [sulfamoxole], with -1.57%; and `CS(=O)(=O)Nc1ccc([N+](=O)[O-])cc1Oc1ccccc1` [nimesulide], with -0.457% and -0.437%.
Then `CCOC(=O)CN[C@@H](C(=O)N1CC[C@H]1C(=O)NCc1ccc(/C(N)=N\O)cc1)C1CCCCC1` [ximelagatran], with -0.617%; and `CC(C)NC(=N)NC(=N)Nc1ccc(Cl)cc1`, with 2.31%; and `CCN(CC)S(=O)(=O)c1ccc(C(=O)O)cc1` [etebenecid], with -2.66%.
With `CN1CCC[C@@H]1CCO[C@](C)(c1ccccc1)c1ccc(Cl)cc1`, the percent effect is -2.36%.
Consider `O=C1CN(/N=C/c2ccc([N+](=O)[O-])o2)C(=O)N1` [nitrofurantoin], for which the percent effect was -1.31% and -1.77%.
For `Cc1ccc(Cl)c(Nc2ccccc2C(=O)O)c1Cl`, the percent effect is 2.2%.
Regarding `O=C(O)c1ccccc1Nc1cccc(Cl)c1Cl` [clofenamic acid], the percent effect is -13.6%.
Under `C[C@@H]1C[C@H]2[C@@H]3C[C@H](F)C4=CC(=O)C=C[C@]4(C)[C@H]3[C@@H](O)C[C@]2(C)[C@@]1(O)C(=O)CO` [Paramethasone] stands -3.5%.

Values taken from the supplement of paper PMC8256030.
